{"source": "the supplement of paper PMC12067093", "about": "“Discovery and optimisation of a covalent ligand for TRIM25 and its application to targeted protein ubiquitination” (Chemical Science, 2025)", "note": "Some of the results follow.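 Note: competitive chemoproteomic profiling in live THP-1 cells with an iodoacetamide desthiobiotin (IA-DTB) probe, comparing probe-labelled peptide intensities in compound-treated cells against DMSO-treated controls.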"}
{"compound": "CC1Cc2ccccc2N1C(=O)C1CCCN(C1)C(=O)CCl (mixture of isomers) [TRIM25 ligand 11 (diastereomer mixture)]", "assay": "probe-labelled cysteine peptide fold change vs DMSO (competition) (log2 fold change); higher = less target engagement (more negative = stronger competition)", "conditions": "10 µM; THP-1; incubation time: 4 h"}
{"target": "PARP10_Q53GL7_983+1004_YDSAVDCICQPSIFVIFHDTQALPTHLITCEHVPR (UniProt Q53GL7)", "probe-labelled cysteine peptide fold change": -0.288}
{"target": "OSBPL8_Q9BZF1_575_GEDYVMTMPYAHCK (UniProt Q9BZF1)", "probe-labelled cysteine peptide fold change": 0.126}
{"target": "PAPSS2_O95340_155_IHESAGLPFFEIFVDAPLNICESR (UniProt O95340)", "probe-labelled cysteine peptide fold change": -0.0844}
{"target": "OLA1_Q9NTK5_187_KLKPEYDIMCK (UniProt Q9NTK5)", "probe-labelled cysteine peptide fold change": -0.26}
{"target": "PAFAH1B2_P68402_206_ICKPLHELIMQLLEETPEEK (UniProt P68402)", "probe-labelled cysteine peptide fold change": -0.486}
{"target": "PAK1IP1_Q9NWT1_237_FFDCDSLVCLCEFK (UniProt Q9NWT1)", "probe-labelled cysteine peptide fold change": -0.0714}
{"target": "OSBPL9_Q96SU4_720_LFHEDGECWVYDEPLLK (UniProt Q96SU4)", "probe-labelled cysteine peptide fold change": -0.083}
{"target": "PANK4_Q9NVE7_308_SLLHMISNDIGQLACLHAR (UniProt Q9NVE7)", "probe-labelled cysteine peptide fold change": 0.049}
{"target": "OSBPL8_Q9BZF1_575_LTFLNRGEDYVMTMPYAHCK (UniProt Q9BZF1)", "probe-labelled cysteine peptide fold change": -0.349}
{"target": "PA2G4_Q9UQ80_179_VAHSFNCTPIEGMLSHQLK (UniProt Q9UQ80)", "probe-labelled cysteine peptide fold change": -0.0816}
{"target": "OSBPL1A_Q9BXW6_520_DCGGGDALSNGIK (UniProt Q9BXW6)", "probe-labelled cysteine peptide fold change": 0.00496}
{"target": "OGT_O15294_620_VMAEANHFIDLSQIPCNGK (UniProt O15294)", "probe-labelled cysteine peptide fold change": -0.123}
{"target": "OPLAH_O14841_253_YVQGFCR (UniProt O14841)", "probe-labelled cysteine peptide fold change": -0.0062}
{"target": "PACSIN2_Q9UNF0_163_AHHAACK (UniProt Q9UNF0)", "probe-labelled cysteine peptide fold change": -0.00432}
{"target": "PA2G4_Q9UQ80_49_SLVEASSSGVSVLSLCEK (UniProt Q9UQ80)", "probe-labelled cysteine peptide fold change": -0.139}
